The target of this assay is Gal4-SRC1 (aa 570-780) (UniProt Q15788). Briefly: two-hybrid.

Sequences of proteins named here, by UniProt entry; tags and fusion partners are left off. A change or cut given only in a name is not applied to a line headed by its entry. Residues count along the entry.
UniProt Q15788, 570-780: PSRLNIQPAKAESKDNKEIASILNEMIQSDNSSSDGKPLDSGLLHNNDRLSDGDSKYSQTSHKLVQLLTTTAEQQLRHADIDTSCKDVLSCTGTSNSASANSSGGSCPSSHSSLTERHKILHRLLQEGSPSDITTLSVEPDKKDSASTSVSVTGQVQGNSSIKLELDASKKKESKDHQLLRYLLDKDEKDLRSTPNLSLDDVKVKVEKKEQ

These are yes or no findings as the source states them, for the method shown. Some entries that bind do so weakly or less than the wild type.

B1: LXRα-VP16, wildtype (receptor, UniProt Q13133-1 1-447)
chain: MSLWLGAPVPDIPPDSAVELWKPGAQDASSQAQGGSSCILREEARMPHSAGGTAGVGLEAAEPTALLTRAEPPSEPTEIRPQKRKKGPAPKMLGNELCSVCGDKASGFHYNVLSCEGCKGFFRRSVIKGAHYICHSGGHCPMDTYMRRKCQECRLRKCRQAGMREECVLSEEQIRLKKLKRQEEEQAHATSLPPRASSPPQILPQLSPEQLGMIEKLVAAQQQCNRRSFSDRLRVTPWPMAPDPHSREARQQRFAHFTELAIVSVQEIVDFAKQLPGFLQLSREDQIALLKTSAIEVMLLETSRRYNPGSESITFLKDFSYNREDFAKAGLQVEFINPIFEFSRAMNELQLNDAEFALLIAISIFSADRPNVQDQLQVERLQHTYVEALHAYVSIHHPHDRLMFPRMLMKLVSLRTLSSVHSEQVFALRLQDKKLPPLLSEIWDVHE
On to B1, for which the binding entry is “binds”.

B2: LXRα-VP16 M346V (receptor, UniProt Q13133-1 1-447)
chain: MSLWLGAPVPDIPPDSAVELWKPGAQDASSQAQGGSSCILREEARMPHSAGGTAGVGLEAAEPTALLTRAEPPSEPTEIRPQKRKKGPAPKMLGNELCSVCGDKASGFHYNVLSCEGCKGFFRRSVIKGAHYICHSGGHCPMDTYMRRKCQECRLRKCRQAGMREECVLSEEQIRLKKLKRQEEEQAHATSLPPRASSPPQILPQLSPEQLGMIEKLVAAQQQCNRRSFSDRLRVTPWPMAPDPHSREARQQRFAHFTELAIVSVQEIVDFAKQLPGFLQLSREDQIALLKTSAIEVMLLETSRRYNPGSESITFLKDFSYNREDFAKAGLQVEFINPIFEFSRAVNELQLNDAEFALLIAISIFSADRPNVQDQLQVERLQHTYVEALHAYVSIHHPHDRLMFPRMLMKLVSLRTLSSVHSEQVFALRLQDKKLPPLLSEIWDVHE
For B2, the binding result was “binds”.

The values are drawn from publication doi:10.1101/2024.04.28.591512.
